Assay results taken from US20090118188A1.
These are yes or no findings as the source states them, for the method shown. Some entries that bind do so weakly or less than the wild type.

Chains of the proteins cited; added tags and fusions are not shown. Lines headed by an entry give the natural chain unless they say otherwise; changes in a name come on top.
UniProt P27037: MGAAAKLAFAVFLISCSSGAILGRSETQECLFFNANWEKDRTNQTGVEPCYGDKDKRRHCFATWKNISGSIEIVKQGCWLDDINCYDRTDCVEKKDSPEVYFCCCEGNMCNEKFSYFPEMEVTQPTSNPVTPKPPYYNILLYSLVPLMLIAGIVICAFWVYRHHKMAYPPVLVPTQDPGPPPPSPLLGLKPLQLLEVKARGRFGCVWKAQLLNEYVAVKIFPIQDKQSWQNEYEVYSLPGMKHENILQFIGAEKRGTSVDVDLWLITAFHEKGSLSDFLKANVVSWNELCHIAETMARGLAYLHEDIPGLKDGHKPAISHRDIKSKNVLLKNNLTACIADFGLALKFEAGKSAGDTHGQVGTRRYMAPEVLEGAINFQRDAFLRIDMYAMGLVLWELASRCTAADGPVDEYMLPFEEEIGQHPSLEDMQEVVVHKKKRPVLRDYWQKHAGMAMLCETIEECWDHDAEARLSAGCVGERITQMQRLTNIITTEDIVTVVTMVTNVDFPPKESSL

Biological target: T1, GDF-11 (UniProt O95390)
T1 sequence (looked up): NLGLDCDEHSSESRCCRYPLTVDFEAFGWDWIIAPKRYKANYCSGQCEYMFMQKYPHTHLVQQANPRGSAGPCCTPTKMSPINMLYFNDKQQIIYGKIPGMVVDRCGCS
Assay: Biacore SPR, ligand amine-coupled to CM5 chip

binding: binds
Substance: ActRIIa-mFc (from UniProt P27037 21-135) (Fc fusion)
